# ± gives the standard deviation. This is a selection; strong and weak results do not stand in their true shares. The uncertainty is large for many entries. The list shows a part of the results.
# Experiments:
# [1] = system: MILI (PIWIL2) piRISC loaded with L1MC piRNA (26 nt); assay: pre-steady-state target cleavage rate (min^-1); higher = faster piRNA-guided slicing of the target; conditions: guide: L1MC piRNA 5'p-UAACUAAAUACUAUGCAAGCUGUAGG; auxiliary factor: none (no GTSF1)
# In short: (§1)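 Using HEPES–potassium acetate buffer at 33 °C, 1 nM active affinity-purified piRISC with a single synthetic guide was mixed with 0.1 nM transcribed, DNA-blocked target RNA library for 0–8 or 0–960 min, with or without 500 nM GTSF1 partner protein. Uncleaved targets were sequenced and normalised to depth and to weakly complementary targets, and three trials were pooled with k3 capped at 0.0001 min^-1. A burst-and-steady-state fit gave the pre-steady-state cleavage rate.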
# [2] = system: MIWI (PIWIL1) piRISC loaded with L1MC piRNA (30 nt); assay: as above; conditions: guide: L1MC piRNA 5'p-UAACUAAAUACUAUGCAAGCUGUAGGUCCU
# In short: as §1
# [3] = system: EfPiwi piRISC loaded with L1MC piRNA (26 nt); assay: pre-steady-state target cleavage rate (min^-1); guide: L1MC piRNA 5'p-UAACUAAAUACUAUGCAAGCUGUAGG; MIWI and MILI are mouse PIWI proteins and EfPiwi is from a freshwater sponge; tags in brackets are library labels; higher = faster piRNA-guided slicing of the target
# In short: as §1
# [4] = auxiliary factor: none (no GTSF1)
# [5] = auxiliary factor: 500 nM Ephydatia muelleri Gtsf1
# [6] = auxiliary factor: none (no Gtsf1)
Sequence,pre-steady-state target cleavage rate [1],"pre-steady-state target cleavage rate [2, 4]","pre-steady-state target cleavage rate [3, 5]","pre-steady-state target cleavage rate [3, 6]",pre-steady-state target cleavage rate ([2]; auxiliary factor: 500 nM mouse GTSF1)
UCCUGCUACAGCUUGCAUUGUAUUUAGAAA,0.00126 ± 0.0053,0.00211 ± 0.003,0.00474 ± 0.0017,0.000293 ± 0.014,–
UCCUGCUACAGCUUCGUUAGUAUUUACAAA,0.000113 ± 0.024,0.000259 ± 0.027,0.000295 ± 0.01,0.000359 ± 0.015,–
UCCUGGAUCAGCUUGCAUUGUAUUUACAAA,0.000332 ± 0.019,0.00148 ± 0.0054,0.00105 ± 0.0037,0.000285 ± 0.025,–
UCCUGGAACAGCUUGCAUAGUAUUAUCUAA,0.00106 ± 0.0059,0.00303 ± 0.003,0.00153 ± 0.0034,0.000836 ± 0.0069,–
UCCUCCUACAGCUUGCAUAGAUUUUACAAA,0.000885 ± 0.0057,0.00063 ± 0.011,0.00268 ± 0.0033,0.000419 ± 0.011,–
UCCUCCUACAGCUUGCAUAGAUAAAUCAAA [g11:g26:cont:t1A],0.000212 ± 0.016,0.000263 ± 0.016,0.000732 ± 0.0072,0.000184 ± 0.036,–
UCCUGGAACAGCUUGGUUAGUAUUUACAAA,0.00195 ± 0.0031,0.00121 ± 0.0056,0.00162 ± 0.003,0.00017 ± 0.051,–
UCCUGGAUCAGCUUGCAUAGAUAUUAGAAA,0.000442 ± 0.013,0.000264 ± 0.013,0.000406 ± 0.0071,0.00054 ± 0.012,–
UCCUGCUACAGCUUGCAUACAAUUUAGAAA,0.000951 ± 0.006,0.000326 ± 0.014,0.003 ± 0.0036,0.00021 ± 0.012,–
UCCUCCUACAGCUUGCUUAGUAUUUUCAAA,0.000975 ± 0.0048,0.00106 ± 0.0043,0.00322 ± 0.003,0.000574 ± 0.011,–
UCCUGCUACACGAUGCAUAGUAUUUACAAA,0.000817 ± 0.0076,0.000665 ± 0.012,0.00103 ± 0.0035,0.000219 ± 0.036,–
UCCUGGAUCUGCUUCCAUAGUAUUUAGUUA,0.000804 ± 0.0068,0.000645 ± 0.0049,0.00326 ± 0.0022,0.000263 ± 0.03,–
UCCUGGAUGAGCUUGCAUAGUAUUUAUUA,0.00103 ± 0.0062,0.00227 ± 0.0035,0.00268 ± 0.0022,0.000638 ± 0.016,–
UCCUGGAUCAGCUUGCAUUCUAUUUAGUAA,0.00075 ± 0.0079,0.00249 ± 0.0036,0.000551 ± 0.0073,0.000191 ± 0.035,–
UCCUGGUACAGCUUGCAUACAUUUUACAAA,0.00122 ± 0.0066,0.000235 ± 0.015,0.000294 ± 0.01,0.000199 ± 0.035,–
UCCUGGAUGUGCUUGCUUAGUAUUUAGAAA,0.00179 ± 0.0032,0.00232 ± 0.0039,0.00127 ± 0.0056,0.000408 ± 0.021,–
UCCUGGUACAGCUUCCAUAGUAUUUACUUA,0.00104 ± 0.0087,0.000969 ± 0.0072,0.000623 ± 0.013,0.00035 ± 0.024,–

# Reformatted: results already given
Sequence	pre-steady-state target cleavage rate [1]	pre-steady-state target cleavage rate [2, 4]	pre-steady-state target cleavage rate [3, 5]	pre-steady-state target cleavage rate [3, 6]	pre-steady-state target cleavage rate ([2]; auxiliary factor: 500 nM mouse GTSF1)
UCCUGGAACAGCUUGCAUAGUAUUAUCUAA	0.00106 ± 0.0059	0.00303 ± 0.003	0.00153 ± 0.0034	0.000836 ± 0.0069	–
UCCUCCUACAGCUUGCAUAGAUAAAUCAAA [g11:g26:cont:t1A]	0.000212 ± 0.016	0.000263 ± 0.016	0.000732 ± 0.0072	0.000184 ± 0.036	–

# Later entries:

Sequence,pre-steady-state target cleavage rate [1],"pre-steady-state target cleavage rate [2, 4]","pre-steady-state target cleavage rate [3, 5]","pre-steady-state target cleavage rate [3, 6]",pre-steady-state target cleavage rate ([2]; auxiliary factor: 500 nM mouse GTSF1)
UCCUGGAUGAGGAAGCAUAGUAUUUAGAAA,0.00061 ± 0.0092,0.000378 ± 0.01,0.000581 ± 0.0076,0.000262 ± 0.026,–
UCCUGGAACAGCUUGCAUAGUAUAUACAAA,0.00112 ± 0.0049,0.00138 ± 0.0055,0.00131 ± 0.0042,0.000236 ± 0.025,–
UCCUGGUACAGCUUGCUAUGUAUUUUCAAA,0.000959 ± 0.0063,0.000865 ± 0.0071,0.000465 ± 0.0064,0.000333 ± 0.021,–
UCCUGCUACAGCUUGCAUACUAUUUAGAAA,0.001 ± 0.0071,0.00292 ± 0.0032,0.00298 ± 0.0021,0.000271 ± 0.027,–
UCCUGGAUCAGCUUGCUAAGUAUUUUCAAA,0.000593 ± 0.0084,0.000747 ± 0.0092,0.00039 ± 0.011,0.000701 ± 0.014,–
UCCUCCUACAGCUUGCAUAGAUUUUAGUAA,0.00123 ± 0.0046,0.00138 ± 0.0041,0.00392 ± 0.0025,0.000448 ± 0.01,–
UCCUGGUACAGGAAGCAUAGUAUUUAGAAA,0.000471 ± 0.0082,0.000991 ± 0.0048,0.00226 ± 0.0043,< 0.0001,–
UCCUGGAUGAGCUUGGAUAGUAUUUACUUA,0.000736 ± 0.0079,–,0.00069 ± 0.0084,0.00013 ± 0.06,0.00323 ± 0.0043
UCCUCCUACAGGAUGCAUAGUAUUUAGAAA,0.00152 ± 0.0034,0.00118 ± 0.0031,0.00396 ± 0.0014,0.000262 ± 0.017,–
UCCUGGUACAGCUUCCAUAGUAUUUAGAAA,0.0013 ± 0.0055,0.00135 ± 0.004,0.00336 ± 0.0013,0.000443 ± 0.018,–
UCCUCCUACAGCUUGCAUAGUAUAUAGAAA,0.000857 ± 0.0077,0.00121 ± 0.0054,0.00329 ± 0.0015,0.000159 ± 0.032,–
UCCUGGAUCAGGAUGCAUAGUAUUUAGAAA,0.00134 ± 0.0037,0.00126 ± 0.0056,0.00187 ± 0.0026,0.000284 ± 0.016,–
UCCUGGUACAGCUUGCAUAGAUUUUAGUAA,0.00348 ± 0.0035,0.00193 ± 0.0033,0.00206 ± 0.0032,0.000675 ± 0.014,–
UCCUGGAUCAGCUUGCAUAGUAAUUUCAAA,0.000751 ± 0.0061,0.000357 ± 0.0081,0.00308 ± 0.0043,0.000466 ± 0.012,–
UCCUCCUACAGCUUGCAUAGUUAAUAGUAA,0.000731 ± 0.008,0.0012 ± 0.0034,0.00511 ± 0.003,0.000434 ± 0.011,–
UCCUGGAUGUCCUAGCAUAGUAUUUACUUA,0.00168 ± 0.0031,0.00113 ± 0.0053,0.000371 ± 0.0079,0.000404 ± 0.021,–

# From the supplement of paper PMC10338343
